Experimental data as given in PMC12669770.
These are yes or no findings as the source states them, for the method shown. Binding seen in cells or lysates may run through a third protein. Here binding means that the protein was enriched with, or labelled near, the bait; the list need not be complete. Values belong to the binder of their own block, whether it stands above or below them.

How the values were obtained:
[1] = molecular target: V5-miniTurbo-mCherry-p62 (human) (UniProt Q13501); assay: proximity labelling; miniTurbo-mCherry-p62 stably expressed in RPE1 cells, with or without 72 h ATG5 siRNA knock-down; 500 µM biotin and 5 mM ATP for 2 h at 37 °C; streptavidin pull-down and mass spectrometry; proteins found in the mCherry-p62 control removed
[2] = molecular target: V5-miniTurbo-mCherry-p62 (human), Q13501; assay: as above; settings: remark: other sources report otherwise

binding [1]: binds
B1: ZFYVE1/DFCP1 (protein, UniProt Q9HBF4 1-777)
chain: MSAQTSPAEKGLNPGLMCQESYACSGTDEAIFECDECCSLQCLRCEEELHRQERLRNHERIRLKPGHVPYCDLCKGLSGHLPGVRQRAIVRCQTCKINLCLECQKRTHSGGNKRRHPVTVYNVSNLQESLEAEEMDEETKRKKMTEKVVSFLLVDENEEIQVTNEEDFIRKLDCKPDQHLKVVSIFGNTGDGKSHTLNHTFFYGREVFKTSPTQESCTVGVWAAYDPVHKVAVIDTEGLLGATVNLSQRTRLLLKVLAISDLVIYRTHADRLHNDLFKFLGDASEAYLKHFTKELKATTARCGLDVPLSTLGPAVIIFHETVHTQLLGSDHPSEVPEKLIQDRFRKLGRFPEAFSSIHYKGTRTYNPPTDFSGLRRALEQLLENNTTRSPRHPGVIFKALKALSDRFSGEIPDDQMAHSSFFPDEYFTCSSLCLSCGVGCKKSMNHGKEGVPHEAKSRCRYSHQYDNRVYTCKACYERGEEVSVVPKTSASTDSPWMGLAKYAWSGYVIECPNCGVVYRSRQYWFGNQDPVDTVVRTEIVHVWPGTDGFLKDNNNAAQRLLDGMNFMAQSVSELSLGPTKAVTSWLTDQIAPAYWRPNSQILSCNKCATSFKDNDTKHHCRACGEGFCDSCSSKTRPVPERGWGPAPVRVCDNCYEARNVQLAVTEAQVDDEGGTLIARKVGEAVQNTLGAVVTAIDIPLGLVKDAARPAYWVPDHEILHCHNCRKEFSIKLSKHHCRACGQGFCDECSHDRRAVPSRGWDHPVRVCFNCNKKPGDL

binding [2]: binds
B2: ATG13, O75143 1-517 (protein)
chain: METDLNSQDRKDLDKFIKFFALKTVQVIVQARLGEKICTRSSSSPTGSDWFNLAIKDIPEVTHEAKKALAGQLPAVGRSMCVEISLKTSEGDSMELEIWCLEMNEKCDKEIKVSYTVYNRLSLLLKSLLAITRVTPAYRLSRKQGHEYVILYRIYFGEVQLSGLGEGFQTVRVGTVGTPVGTITLSCAYRINLAFMSTRQFERTPPIMGIIIDHFVDRPYPSSSPMHPCNYRTAGEDTGVIYPSVEDSQEVCTTSFSTSPPSQLSSSRLSYQPAALGVGSADLAYPVVFAAGLNATHPHQLMVPGKEGGVPLAPNQPVHGTQADQERLATCTPSDRTHCAATPSSSEDTETVSNSSEGRASPHDVLETIFVRKVGAFVNKPINQVTLTSLDIPFAMFAPKNLELEDTDPMVNPPDSPETESPLQGSLHSDGSSGGSSGNTHDDFVMIDFKPAFSKDDILPMDLGTFYREFQNPPQLSSLSIDIGAQSMAEDLDSLPEKLAVHEKNVREFDAFVETLQ
